Measured values published in paper PMC5955555.
No constants are given. Whether binding was seen depends on the method and setting. In cells and extracts the contact can be indirect. Some binding calls cover weakened binding; strength is not graded here.

The chains behind the UniProt entries cited, without tags or fusion partners.
UniProt P70605: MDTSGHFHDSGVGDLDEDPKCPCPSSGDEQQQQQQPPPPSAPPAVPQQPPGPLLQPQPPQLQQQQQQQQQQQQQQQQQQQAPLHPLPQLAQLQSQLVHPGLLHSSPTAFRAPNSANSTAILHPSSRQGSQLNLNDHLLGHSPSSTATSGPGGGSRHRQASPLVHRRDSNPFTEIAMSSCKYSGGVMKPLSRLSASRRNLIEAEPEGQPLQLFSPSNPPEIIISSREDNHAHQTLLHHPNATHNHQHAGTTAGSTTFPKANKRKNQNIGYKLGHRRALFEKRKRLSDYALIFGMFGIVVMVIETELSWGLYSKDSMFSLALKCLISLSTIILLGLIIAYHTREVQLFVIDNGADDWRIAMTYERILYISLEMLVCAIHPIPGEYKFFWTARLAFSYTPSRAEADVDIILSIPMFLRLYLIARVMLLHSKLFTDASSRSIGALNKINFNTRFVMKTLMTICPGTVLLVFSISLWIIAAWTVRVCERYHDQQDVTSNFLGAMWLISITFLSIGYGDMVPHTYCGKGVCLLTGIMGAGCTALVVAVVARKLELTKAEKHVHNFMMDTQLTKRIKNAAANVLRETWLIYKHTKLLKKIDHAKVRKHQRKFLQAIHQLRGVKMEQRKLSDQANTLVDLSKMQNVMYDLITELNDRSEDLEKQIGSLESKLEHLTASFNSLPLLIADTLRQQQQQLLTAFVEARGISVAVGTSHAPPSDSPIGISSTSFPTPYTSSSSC
UniProt Q12846: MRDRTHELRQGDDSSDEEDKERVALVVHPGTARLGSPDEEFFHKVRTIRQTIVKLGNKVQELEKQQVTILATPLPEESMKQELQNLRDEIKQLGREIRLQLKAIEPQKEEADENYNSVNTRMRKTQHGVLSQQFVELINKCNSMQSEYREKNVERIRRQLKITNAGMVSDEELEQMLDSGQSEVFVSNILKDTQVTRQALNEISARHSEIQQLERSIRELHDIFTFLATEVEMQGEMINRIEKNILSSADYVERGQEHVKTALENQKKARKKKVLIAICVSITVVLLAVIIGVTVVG
UniProt Q9HBA0: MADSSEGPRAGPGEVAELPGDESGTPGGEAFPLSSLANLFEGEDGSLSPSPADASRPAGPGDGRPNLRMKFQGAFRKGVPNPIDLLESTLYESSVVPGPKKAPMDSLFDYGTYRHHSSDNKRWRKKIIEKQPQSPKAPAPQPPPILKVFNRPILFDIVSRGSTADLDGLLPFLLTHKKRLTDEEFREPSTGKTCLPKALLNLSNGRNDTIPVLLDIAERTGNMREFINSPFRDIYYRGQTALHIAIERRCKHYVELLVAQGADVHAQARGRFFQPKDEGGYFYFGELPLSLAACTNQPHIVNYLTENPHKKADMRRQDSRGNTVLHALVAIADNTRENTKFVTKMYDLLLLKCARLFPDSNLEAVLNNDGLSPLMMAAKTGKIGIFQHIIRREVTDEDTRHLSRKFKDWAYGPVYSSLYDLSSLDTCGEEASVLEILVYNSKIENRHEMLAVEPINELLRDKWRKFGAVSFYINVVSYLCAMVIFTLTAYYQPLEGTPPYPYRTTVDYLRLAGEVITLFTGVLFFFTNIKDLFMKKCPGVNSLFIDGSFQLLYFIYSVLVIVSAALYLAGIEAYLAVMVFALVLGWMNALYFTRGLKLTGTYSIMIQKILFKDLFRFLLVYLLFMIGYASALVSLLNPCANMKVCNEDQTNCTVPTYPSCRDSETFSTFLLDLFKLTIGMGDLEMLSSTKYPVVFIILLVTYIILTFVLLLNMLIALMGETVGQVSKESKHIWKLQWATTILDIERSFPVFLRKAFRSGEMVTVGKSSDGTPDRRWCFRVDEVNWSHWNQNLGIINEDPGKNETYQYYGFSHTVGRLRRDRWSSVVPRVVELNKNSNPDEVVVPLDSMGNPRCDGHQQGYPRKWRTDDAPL

Legend:
[1] = target: PM localized KCa2.3 (unpublished co-IP with TRPV4) (UniProt P70605); assay: co-IP; unpublished observation; TRPV4 associated with PM localized KCa2.3, amount doubled on increasing intracellular Ca2+
GFP-tagged syntaxin-4 = GFP-tagged syntaxin-4 (UniProt Q12846); assay: co-IP; HEK cells transfected with myc-KCa2.3 (alone, or with GFP-syntaxin-4); one partner immunoprecipitated from lysate, immunoblot for the other; IgG control
myc-tagged KCa2.3 = myc-tagged KCa2.3 (UniProt P70605); assay: as above

## TRPV4 (from UniProt Q9HBA0 1-871)
[1]
  binding: binds

## myc-tagged KCa2.3 (from UniProt P70605 1-732)
GFP-tagged syntaxin-4
  binding: binds

B1: SNAP-23 (endogenous, HEK cells) (protein, UniProt O00161 1-211)
chain: MDNLSSEEIQQRAHQITDESLESTRRILGLAIESQDAGIKTITMLDEQKEQLNRIEEGLDQINKDMRETEKTLTELNKCCGLCVCPCNRTKNFESGKAYKTTWGDGGENSPCNVVSKQPGPVTNGQLQQPTTGAASGGYIKRITNDAREDEMEENLTQVGSILGNLKDMALNIGNEIDAQNPQIKRITDKADTNRDRIDIANARAKKLIDS
myc-tagged KCa2.3
  binding: binds
